These are yes or no findings as the source states them, for the method shown. In cells and extracts the contact can be indirect. Some results given as binding are weak or reduced against the parent protein; the word gives no strength. For some of these results: Tags and fused reporters may be left off the sequences shown. One block for each molecule: values may come before it.
Columns and labels:
[1] = target: T1, Flag-tagged FBXO2 (Flag-FBXO2), full length, in HEK293T cells (UniProt Q9UK22); assay: co-IP; exogenous co-IP in HEK293T lysate; Anti-Myc-Tag mAb agarose or ANTI-FLAG M2 Affinity Gel overnight; washed three times with IP buffer; immunoblot
T1 sequence: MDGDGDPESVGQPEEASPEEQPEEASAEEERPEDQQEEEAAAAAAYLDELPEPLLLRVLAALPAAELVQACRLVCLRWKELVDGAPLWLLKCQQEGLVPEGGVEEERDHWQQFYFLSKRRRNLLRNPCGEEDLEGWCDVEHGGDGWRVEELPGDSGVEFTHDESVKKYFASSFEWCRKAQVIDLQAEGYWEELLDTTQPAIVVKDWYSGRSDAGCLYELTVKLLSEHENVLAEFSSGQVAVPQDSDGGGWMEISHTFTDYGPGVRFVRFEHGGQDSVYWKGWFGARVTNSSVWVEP

Sequences of proteins named here, by UniProt entry; tags and fusion partners are left off. Residues count along the entry.
UniProt P80188, residues 21-198: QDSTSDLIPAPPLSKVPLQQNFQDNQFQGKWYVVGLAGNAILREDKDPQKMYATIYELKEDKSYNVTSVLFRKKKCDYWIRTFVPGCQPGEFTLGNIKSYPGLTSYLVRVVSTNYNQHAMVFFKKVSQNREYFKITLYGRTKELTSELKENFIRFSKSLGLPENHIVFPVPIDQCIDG

[2] = target: T2, F-box only protein 2 (FBXO2), endogenous in human NP cells (human (endogenous in human NP cells)) (UniProt Q9UK22); assay: co-IP; endogenous co-IP in human NP cell lysate; antibody overnight, Protein A/G PLUS-Agarose 2 h at 4 °C; control IgG; immunoblot
T2 sequence: T1 sequence

[3] = target: Myc-tagged LCN2 (Myc-LCN2), in HEK293T cells (UniProt P80188); assay: co-IP; exogenous co-IP in HEK293T lysate; Anti-Myc-Tag mAb agarose or ANTI-FLAG M2 Affinity Gel overnight; washed three times with IP buffer; immunoblot

binding [1]: binds
Molecule: lipocalin-2 (LCN2), endogenous in HEK293T cells (from UniProt P80188 21-198)

binding [2]: binds
Molecule: lipocalin-2 (LCN2), endogenous in human NP cells (from UniProt P80188 21-198)

The remaining lines, values behind:

Molecule: Myc-tagged LCN2 (Myc-LCN2), in HEK293T cells (from UniProt P80188 21-198)
binding [1]: binds

B1: F-box only protein 2 (FBXO2), endogenous in HEK293T cells (protein, UniProt Q9UK22 1-296)
chain: T1 sequence
binding [3]: binds

— paper PMC12462960
